No constants are given. Whether binding was seen depends on the method and setting. Binding seen in cells or lysates may run through a third protein. Some binding calls cover weakened binding; strength is not graded here.
Target: T1, endogenous PKC zeta (mouse brain) (mouse (endogenous in C57BL/6 brain)) (UniProt Q02956)
T1 sequence: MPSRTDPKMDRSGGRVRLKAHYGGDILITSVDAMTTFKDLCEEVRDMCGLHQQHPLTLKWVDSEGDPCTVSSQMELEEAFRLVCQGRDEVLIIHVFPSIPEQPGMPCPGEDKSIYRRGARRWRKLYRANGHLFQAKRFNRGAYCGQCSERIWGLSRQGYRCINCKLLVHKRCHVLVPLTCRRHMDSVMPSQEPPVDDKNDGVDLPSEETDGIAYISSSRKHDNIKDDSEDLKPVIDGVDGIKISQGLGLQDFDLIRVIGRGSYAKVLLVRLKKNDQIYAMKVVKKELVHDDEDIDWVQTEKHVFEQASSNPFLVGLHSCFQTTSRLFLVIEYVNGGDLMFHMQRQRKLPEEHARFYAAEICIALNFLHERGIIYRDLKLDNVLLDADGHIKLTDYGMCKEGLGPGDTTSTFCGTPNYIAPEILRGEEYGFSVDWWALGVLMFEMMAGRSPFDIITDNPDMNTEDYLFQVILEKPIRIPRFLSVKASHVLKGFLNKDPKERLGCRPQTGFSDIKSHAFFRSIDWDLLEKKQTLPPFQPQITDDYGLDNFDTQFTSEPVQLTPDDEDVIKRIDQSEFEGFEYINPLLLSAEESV
Test: co-IP; C57BL/6 mouse brain lysate (3 mg protein, 1% Triton X-100); goat polyclonal anti-PKC zeta on protein G beads overnight at 4 C; washes included lysis buffer plus 0.5 M NaCl; blot with anti-LRRK2 (clone 1E11); pre-immune serum as control

The chains behind the UniProt entries cited, without tags or fusion partners.
UniProt Q5S006: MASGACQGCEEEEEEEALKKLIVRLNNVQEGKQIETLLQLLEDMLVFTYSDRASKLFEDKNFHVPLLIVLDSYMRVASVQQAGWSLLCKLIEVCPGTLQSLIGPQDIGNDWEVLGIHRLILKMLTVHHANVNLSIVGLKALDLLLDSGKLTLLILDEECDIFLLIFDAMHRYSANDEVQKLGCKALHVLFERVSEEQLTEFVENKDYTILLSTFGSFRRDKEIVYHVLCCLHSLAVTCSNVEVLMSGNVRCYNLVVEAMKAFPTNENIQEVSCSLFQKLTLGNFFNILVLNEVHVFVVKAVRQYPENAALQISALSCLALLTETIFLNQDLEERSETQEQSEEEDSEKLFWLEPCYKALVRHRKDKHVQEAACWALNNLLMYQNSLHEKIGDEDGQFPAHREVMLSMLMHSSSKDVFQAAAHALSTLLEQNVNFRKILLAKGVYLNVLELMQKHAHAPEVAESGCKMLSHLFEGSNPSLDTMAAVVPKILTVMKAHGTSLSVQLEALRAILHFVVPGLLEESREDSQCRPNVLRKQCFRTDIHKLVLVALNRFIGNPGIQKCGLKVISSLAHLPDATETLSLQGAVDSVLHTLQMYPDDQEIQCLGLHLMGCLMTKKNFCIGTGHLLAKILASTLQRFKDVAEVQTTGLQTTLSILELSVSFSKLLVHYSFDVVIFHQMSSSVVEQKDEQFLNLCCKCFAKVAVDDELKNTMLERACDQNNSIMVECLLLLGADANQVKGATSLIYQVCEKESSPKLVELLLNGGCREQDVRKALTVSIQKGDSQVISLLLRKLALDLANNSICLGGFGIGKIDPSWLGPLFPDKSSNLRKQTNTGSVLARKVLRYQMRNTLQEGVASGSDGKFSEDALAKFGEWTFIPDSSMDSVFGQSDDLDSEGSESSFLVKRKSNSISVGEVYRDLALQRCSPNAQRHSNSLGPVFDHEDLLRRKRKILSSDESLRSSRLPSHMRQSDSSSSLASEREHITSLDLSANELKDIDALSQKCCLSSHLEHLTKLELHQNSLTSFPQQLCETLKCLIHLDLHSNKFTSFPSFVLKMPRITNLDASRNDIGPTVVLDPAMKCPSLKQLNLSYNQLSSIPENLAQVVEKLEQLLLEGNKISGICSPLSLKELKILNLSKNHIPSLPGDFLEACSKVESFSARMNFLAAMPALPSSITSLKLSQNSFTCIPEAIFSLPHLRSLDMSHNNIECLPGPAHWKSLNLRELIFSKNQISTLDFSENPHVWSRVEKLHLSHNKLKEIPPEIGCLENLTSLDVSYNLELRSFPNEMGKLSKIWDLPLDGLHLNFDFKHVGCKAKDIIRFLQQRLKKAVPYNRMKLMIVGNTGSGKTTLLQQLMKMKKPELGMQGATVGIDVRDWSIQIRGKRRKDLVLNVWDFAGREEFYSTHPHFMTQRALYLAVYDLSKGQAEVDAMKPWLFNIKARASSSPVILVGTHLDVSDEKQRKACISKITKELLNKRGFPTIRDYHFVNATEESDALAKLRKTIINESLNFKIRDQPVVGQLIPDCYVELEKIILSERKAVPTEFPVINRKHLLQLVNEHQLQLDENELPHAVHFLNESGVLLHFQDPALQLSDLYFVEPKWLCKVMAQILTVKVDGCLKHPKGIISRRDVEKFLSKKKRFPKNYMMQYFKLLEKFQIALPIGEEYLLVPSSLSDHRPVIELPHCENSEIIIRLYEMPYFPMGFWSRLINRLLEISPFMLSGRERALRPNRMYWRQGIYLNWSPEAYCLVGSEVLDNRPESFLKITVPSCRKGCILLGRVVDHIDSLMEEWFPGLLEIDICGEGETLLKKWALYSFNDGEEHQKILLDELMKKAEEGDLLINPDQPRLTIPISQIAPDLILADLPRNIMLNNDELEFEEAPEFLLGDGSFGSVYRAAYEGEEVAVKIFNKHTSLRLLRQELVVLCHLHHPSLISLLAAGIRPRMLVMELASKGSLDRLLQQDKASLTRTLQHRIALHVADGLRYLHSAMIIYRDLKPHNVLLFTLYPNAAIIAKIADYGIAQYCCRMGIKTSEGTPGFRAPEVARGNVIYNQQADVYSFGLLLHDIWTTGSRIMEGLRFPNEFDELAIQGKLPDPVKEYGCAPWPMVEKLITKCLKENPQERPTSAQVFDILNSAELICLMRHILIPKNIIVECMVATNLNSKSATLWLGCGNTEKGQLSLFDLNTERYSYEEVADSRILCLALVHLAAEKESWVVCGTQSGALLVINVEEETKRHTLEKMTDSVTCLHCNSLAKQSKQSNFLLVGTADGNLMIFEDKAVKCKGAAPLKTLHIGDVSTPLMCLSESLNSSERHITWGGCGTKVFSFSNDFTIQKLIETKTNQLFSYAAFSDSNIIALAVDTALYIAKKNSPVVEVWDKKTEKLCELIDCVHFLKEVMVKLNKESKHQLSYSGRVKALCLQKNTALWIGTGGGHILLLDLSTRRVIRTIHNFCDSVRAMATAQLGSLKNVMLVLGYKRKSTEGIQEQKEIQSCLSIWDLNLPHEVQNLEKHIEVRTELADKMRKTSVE

binding: binds
Substance: endogenous LRRK2 (mouse brain) (from UniProt Q5S006 1-2527)

Source: paper PMC2951910
